{"source": "PubChem BioAssay AID493246 (Drosophila RNAi Screening Center, 2011)", "aim": "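Identify essential fly genes by loss of cell viability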 (primary screen)", "cells": "Drosophila Kc and S2R+ cells", "reagent": "long dsRNA against Drosophila genes", "measured": "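Cell number per well after knock-down, printed as raw plate values; calls were based on per-plate z-scores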", "direction": "Kc cell number and S2R+ cell number: higher = more cells remaining", "call rule": "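Active when the per-plate z-score of cell number is 3 or more in the direction of fewer cells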", "note": "The deposit covers about 21,000 reagents; this is an unselected part of those that have a named target and a result. Over the whole deposit, 429 (2%) were called active. 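Values are raw and not normalised between plates; calls rest on per-plate z-scores that were not deposited.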 Not stated in the record: the amount of reagent, the time to read-out."}
{"predicted target": "CG32444", "DRSC id": "DRSC11677", "Kc cell number, rep 1": 1.63e6, "Kc cell number, rep 2": 1.66e6, "S2R+ cell number, rep 1": 1.15e6, "S2R+ cell number, rep 2": 1.23e6, "Outcome": "inactive"}
{"predicted target": "CG12590", "DRSC id": "DRSC12216", "Kc cell number, rep 1": 1.62e6, "Kc cell number, rep 2": 1.87e6, "S2R+ cell number, rep 1": 1.22e6, "S2R+ cell number, rep 2": 1.37e6, "Outcome": "inactive"}
{"predicted target": "Nep4 (Neprilysin 4)", "DRSC id": "DRSC15539", "Kc cell number, rep 1": 1.49e6, "Kc cell number, rep 2": 1.57e6, "S2R+ cell number, rep 1": 1.17e6, "S2R+ cell number, rep 2": 1.25e6, "Outcome": "inactive"}
{"predicted target": "Lip2 (Lipase 2)", "DRSC id": "DRSC02577", "Kc cell number, rep 1": 1.54e6, "Kc cell number, rep 2": 1.56e6, "S2R+ cell number, rep 1": 1.18e6, "S2R+ cell number, rep 2": 1.28e6, "Outcome": "inactive"}
{"predicted target": "Lip2 (Lipase 2)", "DRSC id": "DRSC02578", "Kc cell number, rep 1": 1.55e6, "Kc cell number, rep 2": 1.56e6, "S2R+ cell number, rep 1": 1.22e6, "S2R+ cell number, rep 2": 1.32e6, "Outcome": "inactive"}
{"predicted target": "Jon99Fii (Jonah 99Fii)", "DRSC id": "DRSC15430", "Kc cell number, rep 1": 1.46e6, "Kc cell number, rep 2": 1.48e6, "S2R+ cell number, rep 1": 9.38e5, "S2R+ cell number, rep 2": 1.04e6, "Outcome": "inactive"}
{"predicted target": "CG10211", "DRSC id": "DRSC02027", "Kc cell number, rep 1": 1.58e6, "Kc cell number, rep 2": 1.67e6, "S2R+ cell number, rep 1": 1.44e6, "S2R+ cell number, rep 2": 1.71e6, "Outcome": "inactive"}
{"predicted target": "Dop2R (Dopamine 2-like receptor)", "DRSC id": "DRSC20683", "Kc cell number, rep 1": 1.55e6, "Kc cell number, rep 2": 1.55e6, "S2R+ cell number, rep 1": 1.11e6, "S2R+ cell number, rep 2": 1.21e6, "Outcome": "inactive"}
{"predicted target": "Dop2R (Dopamine 2-like receptor)", "DRSC id": "DRSC20686", "Kc cell number, rep 1": 1.64e6, "Kc cell number, rep 2": 1.67e6, "S2R+ cell number, rep 1": 1.15e6, "S2R+ cell number, rep 2": 1.25e6, "Outcome": "inactive"}
{"predicted target": "CG42390", "DRSC id": "DRSC15866", "Kc cell number, rep 1": 1.52e6, "Kc cell number, rep 2": 1.55e6, "S2R+ cell number, rep 1": 1.02e6, "S2R+ cell number, rep 2": 1.03e6, "Outcome": "inactive"}
{"predicted target": "anne (anne boleyn)", "DRSC id": "DRSC17103", "Kc cell number, rep 1": 1.73e6, "Kc cell number, rep 2": 1.58e6, "S2R+ cell number, rep 1": 1.11e6, "S2R+ cell number, rep 2": 1.24e6, "Outcome": "inactive"}
{"predicted target": "CG15345 (retired record)", "DRSC id": "DRSC18030", "Kc cell number, rep 1": 1.51e6, "Kc cell number, rep 2": 1.62e6, "S2R+ cell number, rep 1": 1.10e6, "S2R+ cell number, rep 2": 1.18e6, "Outcome": "inactive"}
{"predicted target": "RhoGAPp190 (Rho GTPase activating protein p190)", "DRSC id": "DRSC20097", "Kc cell number, rep 1": 1.66e6, "Kc cell number, rep 2": 1.67e6, "S2R+ cell number, rep 1": 1.06e6, "S2R+ cell number, rep 2": 1.17e6, "Outcome": "inactive"}
{"predicted target": "RhoGAPp190 (Rho GTPase activating protein p190)", "DRSC id": "DRSC20099", "Kc cell number, rep 1": 1.47e6, "Kc cell number, rep 2": 1.53e6, "S2R+ cell number, rep 1": 1.03e6, "S2R+ cell number, rep 2": 1.18e6, "Outcome": "inactive"}
{"predicted target": "dati (datilografo)", "DRSC id": "DRSC17128", "Kc cell number, rep 1": 5.11e5, "S2R+ cell number, rep 1": 8.21e5, "Outcome": "inactive"}
{"predicted target": "dati (datilografo)", "DRSC id": "DRSC17153", "Kc cell number, rep 1": 1.44e6, "Kc cell number, rep 2": 1.44e6, "S2R+ cell number, rep 1": 1.02e6, "S2R+ cell number, rep 2": 1.08e6, "Outcome": "inactive"}
{"predicted target": "CG31259", "DRSC id": "DRSC14366", "Kc cell number, rep 1": 1.42e6, "Kc cell number, rep 2": 1.56e6, "S2R+ cell number, rep 1": 1.23e6, "S2R+ cell number, rep 2": 1.28e6, "Outcome": "inactive"}
{"predicted target": "CG32086", "DRSC id": "DRSC10586", "Kc cell number, rep 1": 1.34e6, "Kc cell number, rep 2": 1.37e6, "S2R+ cell number, rep 1": 1.31e6, "S2R+ cell number, rep 2": 1.36e6, "Outcome": "inactive"}
{"predicted target": "CG17233", "DRSC id": "DRSC10259", "Kc cell number, rep 1": 1.32e6, "Kc cell number, rep 2": 1.39e6, "S2R+ cell number, rep 1": 9.81e5, "S2R+ cell number, rep 2": 1.05e6, "Outcome": "inactive"}
{"predicted target": "PolA1 (DNA polymerase alpha subunit 1)", "DRSC id": "DRSC16640", "Kc cell number, rep 1": 1.41e6, "Kc cell number, rep 2": 1.47e6, "S2R+ cell number, rep 1": 1.08e6, "S2R+ cell number, rep 2": 1.14e6, "Outcome": "inactive"}
{"predicted target": "CG16789", "DRSC id": "DRSC15155", "Kc cell number, rep 1": 1.48e6, "Kc cell number, rep 2": 1.48e6, "S2R+ cell number, rep 1": 1.24e6, "S2R+ cell number, rep 2": 1.29e6, "Outcome": "inactive"}

A few values from above.
CG32444 [DRSC11677], S2R+ cell number, rep 1 → 1.15e6
Value for CG15345 (retired record) [DRSC18030] in “Kc cell number, rep 1”: 1.51e6
For “Outcome”, dati (datilografo) [DRSC17128] shows inactive
